Results from patent US10703748B2, “Diazanaphthalen-3-yl carboxamides and preparation and use thereof” (Samumed, LLC, priority 2017, dated 2020).
At least one structure is not confirmed: it was looked up by name or label, or the drawing left a doubt. Some entries share one result that the patent states for a list of compounds.

Tests used:
DYRK1A kinase = DYRK1A kinase (Homo sapiens, UniProt Q13627); test: DYRK1A kinase activity (Ser/Thr 18 peptide Z-lyte FRET assay); assay type: biochemical; conditions: recombinant DYRK1A, 30 μM ATP, one hour at room temperature;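 note: kinase activity read as coumarin/fluorescein emission ratio after development step, with unphosphorylated and phosphorylated peptide forms setting 0% and 100% controls, values from dose-response curves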
[1] = system: Tau phosphorylation at Ser396 (pSer396); test: Tau phosphorylation at Ser396 (pSer396) in SH-SY5Y cells, ELISA / western blot; assay type: cell-based, human; conditions: control DYRK1A inhibitors;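 note: decrease in pSer396 Tau measured in lysates of treated cells by colorimetric ELISA or chemiluminescent western blot, same pSer396 antibody for both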

Row | SMILES | EC50 (DYRK1A kinase) [nM] | EC50 [1] [nM]
1 | O=C(Nc1cc2nc(-c3cnn4c3CN(CCF)CC4)ccc2cn1)C1CCC(F)(F)CC1 [Compound 317] | 6 | –
2 | CCN1/C(=C/C(C)=O)Sc2ccc(O)cc21 [Indy, reference compound] | – | > 10000
